# Counter-ions that a name gives are not always drawn. This is one part of the list. This data set is noisy: repeats of one test often differ as much as different tests do.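 ReNCell VM, a human fetal ventral-midbrain neural progenitor line, was differentiated without mitogens. Blinded raters scored images stained for doublecortin (early neurons) or tyrosine hydroxylase (dopaminergic neurons) against untreated wells (0 = no change). Scores were averaged across repeats and both raters, and compounds averaging 2 or more were selected as hits for retesting.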
# Experiments:
# ReNCell VM [1] = test: neuronal differentiation score (DCX+ cell fraction vs untreated, manual image score) (score (-3 to 3)); higher = more neuronal differentiation; conditions: 2 uM, 2 weeks
# ReNCell VM [2] = test: dopaminergic neuron differentiation score (TH+ cell fraction vs untreated, manual image score) (score (0 to 3)); higher = more TH+ dopaminergic neuron differentiation; conditions: 2 uM, 4 weeks, BDNF 10 ng/ml + GDNF 10 ng/ml
smiles,measurement,setting,value
Cc1ccc(NC(=O)c2ccc(CN3CCN(C)CC3)cc2)cc1Nc1nccc(-c2cccnc2)n1,neuronal differentiation score,ReNCell VM [1]; library: Spectrum,inactive: 0
same,dopaminergic neuron differentiation score,ReNCell VM [2]; library: Spectrum,inactive: 0
NC1CCN(c2c(F)cc3c(=O)c(C(=O)O)cn(C4CC4)c3c2Cl)C1 (configuration not stated) [Clinafloxacin],neuronal differentiation score,ReNCell VM [1]; library: Prestwick,inactive: 0
same,dopaminergic neuron differentiation score,ReNCell VM [2]; library: Prestwick,inactive: 0
Cc1cc(OC(=O)c2c(C)cc(O)cc2O)cc(O)c1C(=O)O [lecanoric acid],neuronal differentiation score,ReNCell VM [1]; library: Natural,inactive: 0
same,dopaminergic neuron differentiation score,ReNCell VM [2]; library: Natural,inactive: 0
Nc1nc2[nH]cnc2c(=S)[nH]1,neuronal differentiation score,ReNCell VM [1]; library: Spectrum,inactive: 0
same,dopaminergic neuron differentiation score,ReNCell VM [2]; library: Spectrum,inactive: 0
O=C(O)CCCCCCCC(O)C(O)CCCCCCO (configuration not stated),neuronal differentiation score,ReNCell VM [1]; library: Spectrum,inactive: 0
same,dopaminergic neuron differentiation score,ReNCell VM [2]; library: Spectrum,inactive: 0
Cc1cc(-c2ccccc2)nnc1NCCN1CCOCC1 [Minaprine dihydrochloride],neuronal differentiation score,ReNCell VM [1]; library: Prestwick,inactive: 0
same,dopaminergic neuron differentiation score,ReNCell VM [2]; library: Prestwick,inactive: 0
c1ccc2[nH]c(-c3cscn3)nc2c1 [Tiabendazole],neuronal differentiation score,ReNCell VM [1]; library: Prestwick,inactive: 0
same,dopaminergic neuron differentiation score,ReNCell VM [2]; library: Prestwick,inactive: 0
Cc1ccc2c(c1)CC[C@H]1CC(=O)CC[C@]21C,neuronal differentiation score,ReNCell VM [1]; library: Spectrum,inactive: 0
same,dopaminergic neuron differentiation score,ReNCell VM [2]; library: Spectrum,inactive: 0
Oc1ccc(Cl)c2cccnc12,neuronal differentiation score,ReNCell VM [1]; library: Spectrum,inactive: 0
same,dopaminergic neuron differentiation score,ReNCell VM [2]; library: Spectrum,inactive: 0
CO[C@@H]1[C@@H](OC(N)=O)[C@@H](O)[C@H](Oc2ccc3c(O)c(NC(=O)c4ccc(O)c(CC=C(C)C)c4)c(=O)oc3c2C)OC1(C)C [Novobiocin sodium salt],neuronal differentiation score,ReNCell VM [1]; library: Prestwick,inactive: 0
same,dopaminergic neuron differentiation score,ReNCell VM [2]; library: Prestwick,inactive: 0
O=C(CCc1ccc(O)cc1)c1c(O)cc(O)cc1O,neuronal differentiation score,ReNCell VM [1]; library: Spectrum,inactive: 0
same,dopaminergic neuron differentiation score,ReNCell VM [2]; library: Spectrum,inactive: 0
O=C(CCCN1CCC(O)(c2ccc(Br)cc2)CC1)c1ccc(F)cc1,neuronal differentiation score,ReNCell VM [1]; library: Spectrum,active: 2
same,dopaminergic neuron differentiation score,ReNCell VM [2]; library: Spectrum,inactive: 0
O=c1cc(-c2ccccc2)oc2cc(O)c(O)c(O)c12,neuronal differentiation score,ReNCell VM [1]; library: Spectrum,inactive: 0
same,dopaminergic neuron differentiation score,ReNCell VM [2]; library: Spectrum,inactive: 0
C[C@]12C=CC(=O)C=C1CC[C@@H]1C2=CC[C@]2(C)[C@@H](C(=O)CN3CCN(c4cc(N5CCCC5)nc(N5CCCC5)n4)CC3)CC[C@@H]12,neuronal differentiation score,ReNCell VM [1]; library: LOPAC,inactive: 0
same,dopaminergic neuron differentiation score,ReNCell VM [2]; library: LOPAC,inactive: 0
O=C(OCCOCCO)c1ccccc1Nc1cccc(C(F)(F)F)c1 [Etofenamate],neuronal differentiation score,ReNCell VM [1]; library: Prestwick,inactive: 0
same,dopaminergic neuron differentiation score,ReNCell VM [2]; library: Prestwick,inactive: 0
Oc1ccc(-c2c(-c3ccccc3)nn3c(C(F)(F)F)cc(C(F)(F)F)nc23)cc1,neuronal differentiation score,ReNCell VM [1]; library: Tocriscreen,inactive: 0
same,dopaminergic neuron differentiation score,ReNCell VM [2]; library: Tocriscreen,inactive: 0
OC(CCN1CCCC1)(c1ccccc1)C1CCCCC1 (configuration not stated) [Procyclidine hydrochloride],neuronal differentiation score,ReNCell VM [1]; library: Prestwick,inactive: 0
same,dopaminergic neuron differentiation score,ReNCell VM [2]; library: Prestwick,inactive: 0
NCCNC(=O)c1ccc(Cl)cc1,neuronal differentiation score,ReNCell VM [1]; library: Spectrum,inactive: 0
same,dopaminergic neuron differentiation score,ReNCell VM [2]; library: Spectrum,inactive: 0
"CN1[C@@H]2CC[C@H]1C[C@@H](OC(=O)C(O)c1ccccc1)C2 (mixture of isomers) [Homatropine hydrobromide (R,S)]",neuronal differentiation score,ReNCell VM [1]; library: Prestwick,inactive: 0
same,dopaminergic neuron differentiation score,ReNCell VM [2]; library: Prestwick,inactive: 0
COc1c2c(cc3occ(-c4ccc5c(c4)OCO5)c(=O)c13)OC(C)(C)C=C2,neuronal differentiation score,ReNCell VM [1]; library: Spectrum,inactive: 0
same,dopaminergic neuron differentiation score,ReNCell VM [2]; library: Spectrum,inactive: 0
CSc1cc2c(cc1C(F)(F)F)N(C(=O)Nc1cccnc1)CC2,neuronal differentiation score,ReNCell VM [1]; library: Tocriscreen,inactive: 0
same,dopaminergic neuron differentiation score,ReNCell VM [2]; library: Tocriscreen,inactive: 0

# Retrieved one by one from above (two):
smiles,measurement,setting,value
Cc1ccc2c(c1)CC[C@H]1CC(=O)CC[C@]21C,dopaminergic neuron differentiation score,ReNCell VM [2]; library: Spectrum,inactive: 0
CSc1cc2c(cc1C(F)(F)F)N(C(=O)Nc1cccnc1)CC2,dopaminergic neuron differentiation score,ReNCell VM [2]; library: Tocriscreen,inactive: 0
